The results in this text go back to article PMC12881369.

Chains of the proteins cited; added tags and fusions are not shown. Lines headed by an entry give the natural chain unless they say otherwise; changes in a name come on top.
UniProt P02647: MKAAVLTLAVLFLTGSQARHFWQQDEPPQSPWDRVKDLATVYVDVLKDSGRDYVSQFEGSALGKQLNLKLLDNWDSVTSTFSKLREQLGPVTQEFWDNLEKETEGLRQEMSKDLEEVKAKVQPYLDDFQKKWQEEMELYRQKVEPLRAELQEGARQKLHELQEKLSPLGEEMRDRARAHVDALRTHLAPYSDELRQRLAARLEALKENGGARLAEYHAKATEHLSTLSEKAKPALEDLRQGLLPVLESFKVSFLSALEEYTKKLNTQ

Results are given in words; binding and its absence hold for the method and conditions named. Binding calls can cover weak binding; strength is not graded here. Where a sequence is shown, tags or fusion partners need not be part of it. For part of these data: Binding seen in cells or lysates may run through a third protein.

Assay [1] concerns the target T1, Scube2 tagged with an hexahistidine tag at the N-terminus (human) (UniProt Q9NQ36).
T1 sequence: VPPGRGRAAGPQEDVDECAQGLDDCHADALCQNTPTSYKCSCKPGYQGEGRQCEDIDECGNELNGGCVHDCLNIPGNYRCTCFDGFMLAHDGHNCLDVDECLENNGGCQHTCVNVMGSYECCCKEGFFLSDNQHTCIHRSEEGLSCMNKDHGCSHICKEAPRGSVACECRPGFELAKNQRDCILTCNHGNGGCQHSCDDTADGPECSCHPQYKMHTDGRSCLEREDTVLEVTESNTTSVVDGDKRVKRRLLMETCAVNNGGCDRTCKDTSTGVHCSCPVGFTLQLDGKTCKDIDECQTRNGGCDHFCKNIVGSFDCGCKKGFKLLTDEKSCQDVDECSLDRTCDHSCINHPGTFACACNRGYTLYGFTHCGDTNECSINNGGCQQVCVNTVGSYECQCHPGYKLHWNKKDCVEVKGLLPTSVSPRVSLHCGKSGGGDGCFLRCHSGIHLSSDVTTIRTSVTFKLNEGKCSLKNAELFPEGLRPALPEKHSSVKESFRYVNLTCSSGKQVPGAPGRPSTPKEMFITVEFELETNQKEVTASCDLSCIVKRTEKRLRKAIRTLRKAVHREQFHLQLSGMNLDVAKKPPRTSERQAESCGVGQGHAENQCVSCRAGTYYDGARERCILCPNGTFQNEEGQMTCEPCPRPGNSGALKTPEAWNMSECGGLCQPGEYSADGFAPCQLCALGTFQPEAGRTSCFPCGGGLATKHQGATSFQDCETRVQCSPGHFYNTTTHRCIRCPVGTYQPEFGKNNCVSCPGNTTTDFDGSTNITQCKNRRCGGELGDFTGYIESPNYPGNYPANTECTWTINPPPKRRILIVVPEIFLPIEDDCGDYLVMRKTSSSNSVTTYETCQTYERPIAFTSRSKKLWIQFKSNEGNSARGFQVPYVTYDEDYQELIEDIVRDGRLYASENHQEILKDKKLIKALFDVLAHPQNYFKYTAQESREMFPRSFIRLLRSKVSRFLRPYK
Kind of assay: QCM-D; purified Scube2 preincubated with purified ApoA1 or HDL and flowed over a heparin-functionalised supported lipid bilayer (biotin-heparin on streptavidin); 22 °C, 10 mM Tris, 100 mM NaCl, pH 7.4, 20 µl per min; ApoA1 or HDL alone as controls; both purified.

Assay [2] deals with T2, FLAG-tagged Scube2 (signal sequence, cubulin (CUB) domain, epidermal growth factor (EGF)-like protein 2) (human) (UniProt Q9NQ36).
T2 sequence: T1 sequence
The assay can be described thus: co-IP; FLAG-tagged Scube2 variants from transfected HEK cells bound to anti-FLAG M2-agarose, with purified ApoA1; overnight at 4 °C, three washes with TBS; blot with α-FLAG and α-ApoA1 antibodies; only the binder purified.

Take “purified human HDL (high-density lipoprotein) (complex)”: the binding entry in assay [1] was “binds”.

For “purified ApoA1 (apolipoprotein A1) (from UniProt P02647)”, the binding entry in assay [1] and in assay [2] was “binds” in each case.
